Some results were stated once for a whole list of compounds, not compound by compound.
Test system: Flemish Giant rabbits
Experiment: Serum antibody titers by ELISA after immunization with purified seminal plasma proteins
Type: in vivo, rabbit
Settings: 200 ug protein every two weeks for 8 weeks with Freund's adjuvant

B1: PDC-109: bovine seminal plasma protein purified by ion exchange chromatography; SEQ ID NO: 1 (protein, listed as Bos taurus)
chain: MALQLGLFLIWAGVSVFLQLDPVNGDQDEGVSTEPTQDGPAELPEDEECVFPFVYRNRKHFDCTVHGSLFPWCSLDADYVGRWKYCAQRDYAKCVFPFIYGGKKYETCTKIGSMWMSWCSLSPNYDKDRAWKYC
Serum antibody titers to the respective protein, end-point dilution: greater than 15,000

B2: BSP-30 kDa: bovine seminal plasma protein; SEQ ID NO: 3 (protein, listed as Bos taurus)
chain: MAPLVGLFLIWAGASVFQQLHPVNGGDIPDPGSKPTPPGMADELPTETYDLPPEIYTTTFLPRTIYPQEEMPYDDKPFPSLLSKANDLNAVFEGPACAFPFTYKGKKYYMCTRKNSVLLWCSLDTEYQGNWKFCTERDEPECVFPFIYRKKSYESCTRVHSFFWRRWCSLTSNYDRDKAWKYC
Serum antibody titers to the respective protein, end-point dilution: greater than 15,000

B3: BSP-A3: bovine seminal plasma protein; SEQ ID NO: 2 (protein, listed as Bos taurus)
chain: MALRLGLFLIWAGVSMFLQLDPVNGDEQLSEDNVILPKEKKDPASGAETKDNKCVFPFIYGNKKYFDCTLHGSLFLWCSLDADYTGRWKYCTKNDYAKCVFPFIYEGKSYDTCIIIGSTFMNYWCSLSSNYDEDGVWKYC
Serum antibody titers to the respective protein, end-point dilution: greater than 15,000

B4: aSFP: acidic seminal fluid protein, bovine spermadhesin; SEQ ID NO: 4 (protein, listed as Bos taurus)
chain: MKLSSVIPWALLLSTATVDSMDWLPRNTNCGGILKEESGVIATYYGPKTNCVWTIQMPPEYHVRVSIQYLQLNCNKESLEIIDGLPGSPVLGKICEGSLMDYRSSGSIMTVKYIREPEHPASFYEVLYFQDPQA
Serum antibody titers to the respective protein, end-point dilution: greater than 15,000

Reference: patent US8592138B2, “Methods for improving sperm functionality” (Androgenix Ltd., priority 2010, dated 2013)
